Data published in US20170275356A1.

Legend:
[1] = biological target: cynomolgus monkey IL-23 (cynomolgus monkey); experiment: SPR (BIAcore), 37 °C
[2] = biological target: rabbit IL-23 (rabbit); experiment: SPR (BIAcore), 37 °C

binding [1]: binds
binding [2]: binds
B1: Antibody I (antibody, human IgG4 S228P, kappa, F234A L235A, V domains shown)
VH: QVQLVQSGAEVKKPGSSVKVSCKASGYKFTRYVMHWVRQAPGQGLEWMGYINPYNDGTNYNEKFKGRVTITADKSTSTAYMELSSLRSEDTAVYYCARNWDTGLWGQGTTVTVSS
VL: DIQMTQSPSSLSASVGDRVTITCKASDHILKFLTWYQQKPGKAPKLLIYGATSLETGVPSRFSGSGSGTDFTLTISSLQPEDFATYYCQMYWSTPFTFGGGTKVEIKR

These are yes or no findings as the source states them, for the method shown. A result given as binding can be weak or reduced; the word gives no strength.
